Experimental data taken from paper PMC5993293.
No constants are given. Whether binding was seen depends on the method and setting. Binding seen in cells or lysates may run through a third protein. Some entries that bind do so weakly or less than the wild type. For part of these data: Tags and fused reporters may be left off the sequences shown.

The chains behind the UniProt entries cited, without tags or fusion partners.
UniProt O88939: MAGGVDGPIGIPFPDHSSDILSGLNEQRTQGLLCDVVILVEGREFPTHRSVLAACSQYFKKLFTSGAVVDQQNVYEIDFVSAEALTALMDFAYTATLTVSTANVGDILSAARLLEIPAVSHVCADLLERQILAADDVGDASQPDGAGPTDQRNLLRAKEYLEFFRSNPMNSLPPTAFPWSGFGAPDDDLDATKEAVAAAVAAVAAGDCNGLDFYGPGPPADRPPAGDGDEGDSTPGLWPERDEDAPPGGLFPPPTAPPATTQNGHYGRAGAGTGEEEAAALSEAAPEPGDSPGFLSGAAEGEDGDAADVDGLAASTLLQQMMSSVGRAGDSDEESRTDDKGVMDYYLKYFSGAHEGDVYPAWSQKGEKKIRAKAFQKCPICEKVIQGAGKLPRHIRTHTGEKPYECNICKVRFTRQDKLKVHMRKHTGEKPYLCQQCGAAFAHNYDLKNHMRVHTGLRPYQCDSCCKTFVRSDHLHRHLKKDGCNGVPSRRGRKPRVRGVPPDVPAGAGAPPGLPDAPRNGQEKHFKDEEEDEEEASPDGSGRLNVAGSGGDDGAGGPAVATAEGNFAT

How the values were obtained:
[1] = molecular target: T1, isolated C-terminus of p65 fused to Venus fragment V2 (mouse) (UniProt Q04207); assay: split reporter; BiFC with Venus fragments V1 (aa 1-158) and V2 (aa 159-239); HEK-293 cells cotransfected; fluorescence quantified by flow cytometry after 24 to 48 hours
T1 sequence: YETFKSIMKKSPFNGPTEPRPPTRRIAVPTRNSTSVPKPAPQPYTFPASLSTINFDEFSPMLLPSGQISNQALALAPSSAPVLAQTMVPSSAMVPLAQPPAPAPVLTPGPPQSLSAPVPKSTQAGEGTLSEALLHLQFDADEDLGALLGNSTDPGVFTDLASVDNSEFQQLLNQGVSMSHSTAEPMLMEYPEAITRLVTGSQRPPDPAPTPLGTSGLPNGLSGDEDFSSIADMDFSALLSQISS

[2] = molecular target: p65-V2 (mouse NFκB p65 fused to the C-terminal fragment of Venus) (mouse) (UniProt Q04207); assay: as above
[3] = molecular target: NFκB p65, endogenous in mouse 3T3 fibroblasts (mouse (endogenous in 3T3 fibroblasts)) (UniProt Q04207); assay: co-IP; TNF-α-treated unmodified fibroblasts; immunoprecipitation with anti-p65, immunoblotting to detect Zbtb7a; both endogenous

Substance | binding [1] | binding [2] | binding [3]
Zbtb7a-V1 (Zbtb7a fused to the N-terminal fragment of Venus) (from UniProt O88939 1-569) | binds | binds | –
Zbtb7a, endogenous in mouse 3T3 fibroblasts (from UniProt O88939 1-569) | – | – | binds
